Library compounds against nucleic acid targets

Data from the ROBIN nucleic acid binder screens, doi:10.1002/anie.202211358.

Targets (5′ to 3′):
TPP: TPP riboswitch RNA three-way junction, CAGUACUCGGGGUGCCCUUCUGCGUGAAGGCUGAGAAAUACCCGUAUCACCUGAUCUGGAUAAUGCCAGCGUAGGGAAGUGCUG. About 160 hits among about 24,000 compounds.
SAM-II: SAM-II riboswitch RNA pseudoknot, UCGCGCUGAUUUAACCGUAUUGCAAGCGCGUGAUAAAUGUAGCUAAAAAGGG. About 200 hits among about 21,000 compounds.

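The test is a small-molecule microarray: each compound is printed twice on a reactive slide, and binding shows as fluorescence of the labelled oligonucleotide after washing. For the PreQ1, TPP and SAM-II riboswitches the laboratory earlier reported (doi:10.1038/s41467-019-09493-3) 1 µM RNA, 2 h, and a rule that included a mean Z-score above 3 (spot signal-to-noise against the whole library), a score well above that on a control array, and duplicate spots agreeing (coefficient of variation under 100). The data file gives only the calls; its cut-offs may differ, and compounds hitting several targets are kept. A missing hit is not proof of no binding, and a hit is not a measured affinity.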 “hit” means called a hit, “no hit” means screened and not called a hit. This is an unselected part of the compounds tested. A target missing from an entry has no call listed here. A dash means that no call is listed here.

- OC1CCN(c2ccnc(N3CCN(CC=Cc4ccccc4)CC3)n2)C1 (stereo not drawn) : TPP: no hit; SAM-II: no hit
- CCc1c(C)nn(CCn2cc(-c3ccc(CO)o3)nn2)c1C : TPP: no hit; SAM-II: no hit
- NC(=O)c1ccc2c(c1SCCO)C(=O)c1ccccc1C2=O : TPP: no hit; SAM-II: no hit
- Cc1ccn2c(C(=O)N3CCC4(CC3)Nc3ccccc3NC4=O)nnc2n1 : TPP: no hit; SAM-II: no hit
- Cc1ccc(NC2c3ccccc3Oc3ccccc32)cc1 : TPP: no hit; SAM-II: no hit
- CCC(=O)N1c2ccc(S(=O)(=O)N(CCO)Cc3ccccc3)cc2CC1C (stereo not drawn) : TPP: no hit; SAM-II: no hit
- COc1ccccc1-c1cc(C(F)(F)F)nc(NCc2ccco2)n1 : TPP: no hit; SAM-II: no hit
- Cc1c(CN2CCC(c3nnc(CN(C)CCO)n3C)CC2)[nH]c2ccccc12 : TPP: no hit; SAM-II: no hit
- O=C(CN1CCCC1)Nc1nc(-c2ccc(Cl)cc2)cs1 : TPP: no hit; SAM-II: no hit
- CNc1nc(C)c(C(=O)OCc2ccccc2)s1 : TPP: no hit; SAM-II: no hit
- Cn1c(CCCC(=O)O)nc2cc(N(CCCl)CCCl)ccc21 : TPP: no hit; SAM-II: no hit
- COc1ccc(S(=O)(=O)N2CCC(NC(=O)NCC(C)O)CC2)cc1 (stereo not drawn) : TPP: no hit
- CCC1CC(C)(c2csc(Nc3ccccc3)n2)OC1=O (stereo not drawn) : TPP: no hit; SAM-II: no hit
- CCCc1cc(NCCN2CCOCC2)n2nc3nc(C)cc(C)c3c2n1 : TPP: no hit
- CC(C)CNC1=C(C(=O)N2CCOCC2)S(=O)(=O)c2ccccc21 : TPP: no hit
- Nc1ccccc1-n1nc2ccc3ccccc3c2n1 : TPP: no hit; SAM-II: no hit
- CCCCOCC(O)Cn1c(Cc2ccccc2)nc2ccccc21 (stereo not drawn) : TPP: no hit; SAM-II: no hit
- O=C(Cn1cc2ccccc2n1)N1CCN(CCO)[C@@H]2CS(=O)(=O)C[C@@H]21 : TPP: no hit; SAM-II: no hit
- COc1ccc(/N=N/c2ccc(N)nc2N)cc1 : TPP: no hit; SAM-II: no hit
- COCCSc1n[nH]c(N)n1 : TPP: no hit; SAM-II: no hit
- CCc1cnc(N)nc1NCCCNc1ccc(C)cn1 : TPP: no hit; SAM-II: no hit
- CCSc1nc(N)c(C#N)c(CC)c1C#N : TPP: no hit; SAM-II: no hit
- CC(=O)N1CCC(NC(C)CCCC(C)(C)O)CC1 (stereo not drawn) : TPP: no hit; SAM-II: no hit
- Cc1ccc(CNCc2ccccc2Cl)s1 : TPP: no hit; SAM-II: no hit
- CC(C)(O)CCc1ccc(OCc2cc(-c3cccc(OC(F)F)c3)c3ncccc3c2)cc1 : TPP: no hit; SAM-II: no hit
- CCO[C@H]1C[C@@H](O)C12CCN(C(=O)CC1=C(c3ccccc3)CCC1=O)CC2 : TPP: no hit; SAM-II: no hit
- Cn1c(N2CC[C@H](O)C2)nc2cc(C(=O)N3CC(c4ccccn4)C3)ccc21 : TPP: no hit; SAM-II: no hit
- Cc1ccccc1Cn1c(CO)nc2ccccc21 : TPP: no hit; SAM-II: no hit
- CC(C)(O)CCc1ccc(C(=O)N2CCNC(c3ccccc3)C2)cc1 (stereo not drawn) : TPP: no hit; SAM-II: no hit
- CC1CCc2cc(F)ccc2N1C(=O)CN1C[C@H]2C[C@H](O)[C@H](O)C[C@H]2C1 (stereo partly drawn) : TPP: no hit; SAM-II: no hit
- C=CCC1(CO)CCCN(Cc2ccc(S(=O)(=O)NC)cc2)C1 (stereo not drawn) : TPP: no hit; SAM-II: no hit
- COc1ccc(F)cc1NC(=O)NC1(CO)CCCCCC1 : TPP: no hit; SAM-II: no hit
- CC(C)(C)c1cc(NCCCn2ccnc2)n2ncc(-c3ccccc3Cl)c2n1 : TPP: no hit
- CCOC(=O)c1sc2nc(N3CCCC3)c3c(c2c1N)CCCC3 : TPP: no hit
- O=c1c2ccccc2nc(CNc2ccccc2)n1-c1ccccc1Cl : TPP: no hit; SAM-II: no hit
- Cc1cccc(C)c1Nc1c(-c2cc(Br)ccc2O)nc2[nH]cnn12 : TPP: no hit; SAM-II: no hit
- COC(=O)C1=C(N)Oc2cc(C)n(C)c(=O)c2C12C(=O)Nc1ccccc12 (stereo not drawn) : TPP: no hit; SAM-II: no hit
- COc1cccc2c1OCCCN(CC1(O)CCNC1)C2 (stereo not drawn) : TPP: no hit; SAM-II: no hit
- OCc1ccc(Cn2cc(-c3ccccc3Cn3cccn3)nn2)cc1 : TPP: no hit; SAM-II: no hit
- c1cc(CN2CCOCC2)cc(C2NCCc3[nH]cnc32)c1 (stereo not drawn) : TPP: no hit; SAM-II: no hit
- Cc1cccc(Nc2nc(N)nc(CN3C[C@@H]4CC[C@H](C3)N(C)C4=O)n2)c1 : TPP: no hit; SAM-II: no hit
- COc1cccc(N2CC(c3nc4ccccc4n3CC(O)COc3cc(C)cc(C)c3)CC2=O)c1 (stereo not drawn) : TPP: no hit
- CCn1c(=N)n(CC(O)COc2ccccc2OC)c2ccccc21 (stereo not drawn) : TPP: no hit; SAM-II: no hit

For reference, 4 entries once more:

| SMILES | TPP | SAM-II |
|---|---|---|
| `CCC1CC(C)(c2csc(Nc3ccccc3)n2)OC1=O` (stereo not drawn) | no hit | no hit |
| `CCC(=O)N1c2ccc(S(=O)(=O)N(CCO)Cc3ccccc3)cc2CC1C` (stereo not drawn) | no hit | no hit |
| `CC(C)CNC1=C(C(=O)N2CCOCC2)S(=O)(=O)c2ccccc21` | no hit | - |
| `COc1ccc(F)cc1NC(=O)NC1(CO)CCCCCC1` | no hit | no hit |